Laboratory results taken from the supplement of paper PMC4635364.
Where a name gives a salt, the structure may show the parent alone. Some of the results follow. Single values are uncertain here, since repeats match poorly.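 Human fetal ventral-midbrain neural progenitor line ReNCell VM, differentiated without mitogens. Images stained for doublecortin (early neurons) or tyrosine hydroxylase (dopaminergic neurons) were scored by blinded raters against untreated wells (0 = no change). Repeats and both raters were averaged, and compounds averaging 2 or higher were picked as hits for retesting.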

How the values were obtained:
[1] = tested on: ReNCell VM; assay: neuronal differentiation score (DCX+ cell fraction vs untreated, manual image score) (score (-3 to 3)); higher = more neuronal differentiation; conditions: 2 uM, 2 weeks
[2] = tested on: ReNCell VM; assay: dopaminergic neuron differentiation score (TH+ cell fraction vs untreated, manual image score) (score (0 to 3)); higher = more TH+ dopaminergic neuron differentiation; conditions: 2 uM, 4 weeks, BDNF 10 ng/ml + GDNF 10 ng/ml

SMILES: CC(C)(Sc1ccc(CCN(CCCCC2CCCCC2)C(=O)NC2CCCCC2)cc1)C(=O)O
- neuronal differentiation score ([1]; library: LOPAC): inactive: 0
- neuronal differentiation score ([1]; library: Tocriscreen): inactive: 0
- dopaminergic neuron differentiation score ([2]; library: LOPAC): inactive: 1
- dopaminergic neuron differentiation score ([2]; library: Tocriscreen): inactive: 0

SMILES: O=C(O)C1(C(=O)O)CCC1.[NH2-].[NH2-].[Pt+2] [Carboplatin]
- neuronal differentiation score ([1]; library: LOPAC): inactive: 0
- neuronal differentiation score ([1]; library: Tocriscreen): inactive: 0
- dopaminergic neuron differentiation score ([2]; library: LOPAC): inactive: 0
- dopaminergic neuron differentiation score ([2]; library: Tocriscreen): inactive: 0

SMILES: COc1ccccc1N1CCN(CCCCNC(=O)c2ccc3ccccc3c2)CC1
- neuronal differentiation score ([1]; library: LOPAC): inactive: 0
- neuronal differentiation score ([1]; library: Prestwick): inactive: 0
- dopaminergic neuron differentiation score ([2]; library: LOPAC): inactive: 0
- dopaminergic neuron differentiation score ([2]; library: Prestwick): inactive: 0

SMILES: Cc1ccc(=O)n(-c2ccccc2)c1 [Pirfenidone]
- neuronal differentiation score ([1]; library: LOPAC): inactive: 0
- neuronal differentiation score ([1]; library: Tocriscreen): inactive: 0
- dopaminergic neuron differentiation score ([2]; library: LOPAC): inactive: 0
- dopaminergic neuron differentiation score ([2]; library: Tocriscreen): inactive: 0

SMILES: Cc1cc(F)c(Nc2ncnc3cc(OCc4ccccc4)ccc23)cc1O
- neuronal differentiation score ([1]; library: Tocriscreen): inactive: 0
- dopaminergic neuron differentiation score ([2]; library: Tocriscreen): inactive: 0

SMILES: c1ccc(N2CCN(CCCOc3ccc4c(c3)OCO4)CC2)cc1 [BP 554 maleate]
- neuronal differentiation score ([1]; library: Tocriscreen): inactive: 0
- dopaminergic neuron differentiation score ([2]; library: Tocriscreen): inactive: 0

SMILES: Nc1c(S(=O)(=O)O)cc(Nc2cccc3ccccc23)c2c1C(=O)c1ccccc1C2=O
- neuronal differentiation score ([1]; library: Tocriscreen): inactive: 0
- dopaminergic neuron differentiation score ([2]; library: Tocriscreen): inactive: 1

SMILES: Cc1cc(-c2ccc(/N=N/c3ccc4c(S(=O)(=O)O)cc(S(=O)(=O)O)c(N)c4c3O)c(C)c2)ccc1/N=N/c1ccc2c(S(=O)(=O)O)cc(S(=O)(=O)O)c(N)c2c1O
- neuronal differentiation score ([1]; library: Spectrum): inactive: 1
- dopaminergic neuron differentiation score ([2]; library: Spectrum): inactive: 0

SMILES: Nc1ccn([C@@H]2O[C@H](CO)[C@@H](O)[C@@H]2O)c(=O)n1
- neuronal differentiation score ([1]; library: Spectrum): inactive: 0
- dopaminergic neuron differentiation score ([2]; library: Spectrum): inactive: 0

SMILES: C[C@@H]1CN(c2c(F)c(N)c3c(=O)c(C(=O)O)cn(C4CC4)c3c2F)C[C@H](C)N1 [Sparfloxacin]
- neuronal differentiation score ([1]; library: Prestwick): inactive: 0
- dopaminergic neuron differentiation score ([2]; library: Prestwick): inactive: 0

SMILES: Cc1cn[nH]c1 [Fomepizole]
- neuronal differentiation score ([1]; library: Prestwick): inactive: 0
- dopaminergic neuron differentiation score ([2]; library: Prestwick): inactive: 0

SMILES: OC(CCN1CCCCC1)(c1ccccc1)C1CCCCC1 (stereo not given)
- neuronal differentiation score ([1]; library: Spectrum): inactive: 0
- dopaminergic neuron differentiation score ([2]; library: Spectrum): inactive: 0

SMILES: Nc1ccc(O)c(C(=O)O)c1
- neuronal differentiation score ([1]; library: Spectrum): inactive: 0
- dopaminergic neuron differentiation score ([2]; library: Spectrum): inactive: 0

SMILES: CCC(=O)NC1Cc2ccccc2C(c2ccccc2)C1 (stereo not given)
- neuronal differentiation score ([1]; library: Tocriscreen): inactive: 0
- dopaminergic neuron differentiation score ([2]; library: Tocriscreen): inactive: 0

SMILES: C[N+](C)(CCOc1ccccc1)Cc1ccccc1.O=C([O-])c1cc2ccccc2cc1O [Bephenium hydroxynaphthoate]
- neuronal differentiation score ([1]; library: Prestwick): inactive: 0
- dopaminergic neuron differentiation score ([2]; library: Prestwick): inactive: 0

SMILES: CN(C)CCC=C1c2ccccc2COc2ccccc21
- neuronal differentiation score ([1]; library: Spectrum): inactive: 0
- dopaminergic neuron differentiation score ([2]; library: Spectrum): inactive: 0

SMILES: CCCCN1CCCC1CNC(=O)c1cc(C#N)c2ccccc2c1OC (stereo not given) [Nafadotride]
- neuronal differentiation score ([1]; library: Tocriscreen): inactive: -3
- dopaminergic neuron differentiation score ([2]; library: Tocriscreen): inactive: 0

SMILES: CC(C)(CO)C(O)C(=O)NCCCO (stereo not given) [Panthenol (D)]
- neuronal differentiation score ([1]; library: Prestwick): inactive: 0
- dopaminergic neuron differentiation score ([2]; library: Prestwick): inactive: 0

SMILES: CN/C(=N\c1ccc(C2=NNC(=O)CC2C)cc1)NC#N (stereo not given) [Siguazodan]
- neuronal differentiation score ([1]; library: Tocriscreen): inactive: 0
- dopaminergic neuron differentiation score ([2]; library: Tocriscreen): inactive: 0

SMILES: OC[C@H]1O[C@@H](n2cnc3c(NCc4ccco4)ncnc32)[C@H](O)[C@@H]1O [kinetin riboside]
- neuronal differentiation score ([1]; library: Natural): inactive: -1
- dopaminergic neuron differentiation score ([2]; library: Natural): inactive: 0

SMILES: CCn1cc(C(=O)O)c(=O)c2cnc(N3CCCC3)nc21 [Piromidic acid]
- neuronal differentiation score ([1]; library: Prestwick): inactive: 0
- dopaminergic neuron differentiation score ([2]; library: Prestwick): inactive: 0

SMILES: OC[C@H]1O[C@H](OCC2O[C@@H](O)[C@H](O)[C@@H](O)[C@@H]2O)[C@H](O)[C@@H](O)[C@H]1O (stereo not given in full)
- neuronal differentiation score ([1]; library: Spectrum): inactive: 0
- dopaminergic neuron differentiation score ([2]; library: Spectrum): active: 3

SMILES: Nc1nc(=O)c2nc(CNc3ccc(C(=O)N[C@@H](CCC(=O)O)C(=O)O)cc3)cnc2[nH]1
- neuronal differentiation score ([1]; library: Spectrum): inactive: 0
- dopaminergic neuron differentiation score ([2]; library: Spectrum): inactive: 0

SMILES: C[n+]1ccccc1/C=N/O
- neuronal differentiation score ([1]; library: Spectrum): inactive: 0
- dopaminergic neuron differentiation score ([2]; library: Spectrum): inactive: 0

SMILES: CC[C@H](C)[C@H](N)C(=O)O
- neuronal differentiation score ([1]; library: Spectrum): inactive: -1
- dopaminergic neuron differentiation score ([2]; library: Spectrum): inactive: 0

SMILES: CN1c2ccccc2C(=O)N2CCc3c([nH]c4ccccc34)C21 (stereo in doubt) [Evodiamine]
- neuronal differentiation score ([1]; library: Phytochemical): inactive: 0
- dopaminergic neuron differentiation score ([2]; library: Phytochemical): inactive: 0

SMILES: Cc1cn[nH]c1
- neuronal differentiation score ([1]; library: Spectrum): inactive: 0
- dopaminergic neuron differentiation score ([2]; library: Spectrum): inactive: 0

SMILES: O=C(O)c1cccc(C(=O)O)n1 [2,6-Pyridinedicarboxylic Acid]
- neuronal differentiation score ([1]; library: Phytochemical): inactive: 0
- dopaminergic neuron differentiation score ([2]; library: Phytochemical): inactive: 0

SMILES: CC1(C(=O)O)NCCc2cc(O)c(O)cc21 (stereo not given) [Salsolinol-1-carboxylic acid]
- neuronal differentiation score ([1]; library: Tocriscreen): inactive: 0
- dopaminergic neuron differentiation score ([2]; library: Tocriscreen): inactive: 1

SMILES: CCCCNc1c(C(=O)OCC)c(C)nc2c1cnn2CC [Tracazolate]
- neuronal differentiation score ([1]; library: LOPAC): inactive: 1
- dopaminergic neuron differentiation score ([2]; library: LOPAC): inactive: 0

SMILES: c1ccc(C(NCCNC(c2ccccc2)c2ccccc2)c2ccccc2)cc1 [AMN 082 dihydrochloride]
- neuronal differentiation score ([1]; library: Tocriscreen): inactive: 0
- dopaminergic neuron differentiation score ([2]; library: Tocriscreen): inactive: 0
